Assay results: PMC12881369
Results are given in words; binding and its absence hold for the method and conditions named. In cells and extracts the contact can be indirect. Here binding means that the protein was enriched with, or labelled near, the bait; the list need not be complete. Tags and fused reporters may be left off the sequences shown. One block for each molecule: values may come before it.

By UniProt entry, the sequences of proteins in these tests, tags left out. Residues count along the entry.
UniProt Q2UVX4, residues 23-1661: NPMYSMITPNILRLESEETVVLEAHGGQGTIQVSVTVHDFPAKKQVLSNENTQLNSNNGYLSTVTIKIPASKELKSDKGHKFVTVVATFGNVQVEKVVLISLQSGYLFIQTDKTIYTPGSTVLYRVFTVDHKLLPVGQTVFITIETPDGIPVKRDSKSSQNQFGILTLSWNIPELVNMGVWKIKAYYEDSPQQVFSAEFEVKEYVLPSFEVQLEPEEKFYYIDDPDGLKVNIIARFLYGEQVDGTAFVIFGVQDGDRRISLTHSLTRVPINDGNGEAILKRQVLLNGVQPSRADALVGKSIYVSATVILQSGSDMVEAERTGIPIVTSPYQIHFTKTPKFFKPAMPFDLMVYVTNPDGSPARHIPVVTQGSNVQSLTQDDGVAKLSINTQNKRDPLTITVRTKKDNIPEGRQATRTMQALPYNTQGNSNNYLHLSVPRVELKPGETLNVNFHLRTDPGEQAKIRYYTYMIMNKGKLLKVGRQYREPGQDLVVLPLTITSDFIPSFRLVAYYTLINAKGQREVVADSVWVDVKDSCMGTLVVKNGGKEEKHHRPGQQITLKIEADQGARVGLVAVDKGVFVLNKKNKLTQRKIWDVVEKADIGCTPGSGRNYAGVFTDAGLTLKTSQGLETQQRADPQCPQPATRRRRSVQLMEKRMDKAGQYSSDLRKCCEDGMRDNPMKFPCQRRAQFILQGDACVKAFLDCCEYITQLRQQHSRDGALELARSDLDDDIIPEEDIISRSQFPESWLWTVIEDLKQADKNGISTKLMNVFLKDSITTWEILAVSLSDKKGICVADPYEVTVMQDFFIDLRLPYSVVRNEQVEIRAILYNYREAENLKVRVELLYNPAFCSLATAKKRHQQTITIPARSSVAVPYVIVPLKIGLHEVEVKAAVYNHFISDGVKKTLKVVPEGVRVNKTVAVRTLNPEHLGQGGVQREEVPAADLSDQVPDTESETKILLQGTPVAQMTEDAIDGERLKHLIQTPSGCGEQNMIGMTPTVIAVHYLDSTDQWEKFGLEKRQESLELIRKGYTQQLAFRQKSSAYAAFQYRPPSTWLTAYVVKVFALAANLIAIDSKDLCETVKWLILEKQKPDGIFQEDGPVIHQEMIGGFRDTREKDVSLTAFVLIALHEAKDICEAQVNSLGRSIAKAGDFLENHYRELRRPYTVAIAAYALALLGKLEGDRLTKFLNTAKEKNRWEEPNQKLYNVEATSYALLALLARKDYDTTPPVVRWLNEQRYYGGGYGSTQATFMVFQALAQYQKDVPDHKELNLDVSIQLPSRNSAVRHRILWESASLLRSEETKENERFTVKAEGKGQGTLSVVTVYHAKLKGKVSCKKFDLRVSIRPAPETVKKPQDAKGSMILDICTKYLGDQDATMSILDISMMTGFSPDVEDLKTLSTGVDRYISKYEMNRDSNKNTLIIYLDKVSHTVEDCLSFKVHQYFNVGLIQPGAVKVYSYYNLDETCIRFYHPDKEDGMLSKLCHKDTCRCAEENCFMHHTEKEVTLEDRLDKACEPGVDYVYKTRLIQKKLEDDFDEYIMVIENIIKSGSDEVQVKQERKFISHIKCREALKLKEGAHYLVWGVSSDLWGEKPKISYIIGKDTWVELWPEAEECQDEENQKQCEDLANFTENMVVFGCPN
UniProt Q58D62, residues 19-387: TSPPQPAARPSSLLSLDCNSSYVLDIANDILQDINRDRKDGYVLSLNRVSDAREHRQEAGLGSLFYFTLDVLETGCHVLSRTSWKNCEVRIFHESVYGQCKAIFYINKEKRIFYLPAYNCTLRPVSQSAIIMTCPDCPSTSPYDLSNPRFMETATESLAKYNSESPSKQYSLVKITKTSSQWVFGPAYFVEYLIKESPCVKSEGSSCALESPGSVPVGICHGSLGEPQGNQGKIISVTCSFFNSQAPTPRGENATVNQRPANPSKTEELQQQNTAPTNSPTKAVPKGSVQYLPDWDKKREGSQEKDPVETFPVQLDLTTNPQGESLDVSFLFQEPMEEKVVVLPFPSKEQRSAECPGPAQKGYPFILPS

Biological target: T1, FLAG-tagged Scube2 (signal sequence, cubulin (CUB) domain, epidermal growth factor (EGF)-like protein 2) (human) (UniProt Q9NQ36)
T1 sequence: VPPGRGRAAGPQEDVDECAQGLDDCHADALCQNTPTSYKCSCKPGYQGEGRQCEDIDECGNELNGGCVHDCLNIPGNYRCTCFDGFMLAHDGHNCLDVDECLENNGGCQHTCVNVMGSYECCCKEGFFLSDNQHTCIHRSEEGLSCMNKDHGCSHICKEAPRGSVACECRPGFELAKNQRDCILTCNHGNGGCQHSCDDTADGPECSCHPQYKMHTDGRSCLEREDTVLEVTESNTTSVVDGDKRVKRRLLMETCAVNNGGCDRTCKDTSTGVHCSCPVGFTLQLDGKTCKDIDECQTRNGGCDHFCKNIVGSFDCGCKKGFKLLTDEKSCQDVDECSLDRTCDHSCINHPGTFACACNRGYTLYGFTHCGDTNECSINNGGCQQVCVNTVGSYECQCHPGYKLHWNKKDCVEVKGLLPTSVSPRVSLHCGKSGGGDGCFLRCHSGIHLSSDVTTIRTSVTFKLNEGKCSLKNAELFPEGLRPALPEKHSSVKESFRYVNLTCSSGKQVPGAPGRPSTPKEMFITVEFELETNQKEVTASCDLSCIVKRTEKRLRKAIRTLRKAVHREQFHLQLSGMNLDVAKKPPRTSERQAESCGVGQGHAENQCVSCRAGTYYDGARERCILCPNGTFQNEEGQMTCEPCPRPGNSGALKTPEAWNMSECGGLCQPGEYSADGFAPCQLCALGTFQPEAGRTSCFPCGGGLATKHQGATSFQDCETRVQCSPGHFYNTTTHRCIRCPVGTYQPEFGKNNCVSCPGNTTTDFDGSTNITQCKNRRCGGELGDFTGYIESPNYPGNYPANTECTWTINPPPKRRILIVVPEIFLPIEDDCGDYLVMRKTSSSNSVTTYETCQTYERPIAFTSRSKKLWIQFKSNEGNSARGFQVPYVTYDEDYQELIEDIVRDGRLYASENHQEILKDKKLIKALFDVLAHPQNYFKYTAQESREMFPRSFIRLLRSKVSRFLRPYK
Assay: affinity purification with mass spectrometry; FLAG-tagged Scube2 expressed in serum-containing medium, bound to anti-FLAG M2-agarose beads overnight at 4 °C, washed with TBS, eluted with 0.1 M glycine HCl pH 3.5; search against human UniProt plus 199 fetal bovine serum sequences

binding: binds
Molecule: complement C3 (from UniProt Q2UVX4 23-1661)

binding: binds
Molecule: plasminogen (bovine)

binding: binds
Molecule: fetuin-B (from UniProt Q58D62 19-387)

binding: binds
B1: α2-macroglobulin (protein, UniProt Q7SIH1 24-1510)
chain: SVSGKPQYMVLVPSLLHTETPEKGCLLLSHLNETVTVSASLESVRENRSLFTDVVAEKDLFHCVSFTLPRSPTSQEVMFLTIQVKGPTQEFKKRTTVLVKNEESLVFVQTDKPIYKPEQTVKFRIVLLDESFHPLNELVPLVYVEDPKGNRIAQWQNLEVENGLQQLTFPLSSEPFQGSYKVVVQKGSGGTAEHPFTVEEFVLPKFEVQVRMPKIITILEEEVQVSVCGLYTYGKPVPGRVTMNMCRKYRNPSNCYGEESNAVCEKFSGELNNEGCFSQQVNTKIFQLKRQEFEMKIEVEAKIQEEGTEVELTGKGATEITTTITKLSFVTVDSNLRRGIPFTGKVLLVDGKGVPMPNKVIFITANEANHNSNTTTDEHGLAQFSITTTKIKGTSLSIRVKYKDHSPCYGYQWLSEEHQDAYHSANLVFSRSNSFVYLEPLPRELPCGKTQTVQAHYVLKGQVLKDLKELVFYYLIMAKGGIVRSGTHTLPVEQGDMQGHFSMSVPVESDIAPVARLLIYAILPDGEVVGDSARYEIEHCLANKVGLNFSPGQSFPASQAHLRVTASPQSLCALRAVDQSVLLMRPEAELSAATVYNLLPVKDLSSFPSSVNQQEEDNEDCISHDNVYINGIMYFPVSNTNEKDMYSFLQDMGLKAFTNSKIHKPKICPQPEEHRIQHHTLLASPVRAEMGRNRDFVHFDDTSEPPTETVRKYFPETWIWDLVVVSSSGVHEVEVTVPDTITEWKAGALCLSRDTGLGLSPTASLRVFQPFFVELTMPYSVIRGEAFTLKATVLNYLPKCIRVSVQLEASPAFLAVPEKEQETYCICGNGRQTVSWAVTPKSLGNVNFTVSAEAVESQELCGSEVPVVPEHGRKDTIIKPLLVEPEGLEKEVIFNSLLCPSVDFVFLGAEDGGQVLRHFPPAAATDTAADAHDPARPGAKVSESLSLKLPPNVVEESARASFSVLGDILGSAMRNTQNLLQMPYGCGEQNMARFAPNIYVLDYLNETQQLTAELKSKAILYLNTGYQRQLLYKHFDGSYSTFGEHRGNSEGNTWLTAFVLKSFAQARGYIFIDEAHITEALTWLAQKQKSNGCFRSTGTLLNNAIKGGVDDEVTLSAYITIALLEMPLPVTHPVVRNALFCLDSAWKSAKEGSQGSHVYTKALLAYAFALAGNQERRTEVLTSLYEEAVKEDNTIHWTRPQKPRLLTEDIYQPRAPSAEVEMTAYVILAHVTAQPAPNPEDLKRATSIVKWISKQQNCQGGFSSTQDTVVALHALSRYGAATFTSARKAAQVTIQSSGTFSTKFQVENSNRLLLQQVSLPEVPGEYSMSVTGEGCVYLQTSLKYNILPKKDEFPFALEVQTLPQTCDGPKAHTSFQISLSVSYIGSRPASNMAIVDVKMVSGFIPLKPTVKMLERSNVSRTEVSNNHVLIYLDKVTNETLTLTFTVLQDIPVRDLKPAIVKVYDYYETDEFAVAEYSAPCSKDIGNA

binding: binds
B2: α1-antiproteinase (protein, UniProt P34955 25-416)
chain: GVLQGHAVQETDDTSHQEAACHKIAPNLANFAFSIYHHLAHQSNTSNIFFSPVSIASAFAMLSLGAKGNTHTEILKGLGFNLTELAEAEIHKGFQHLLHTLNQPNHQLQLTTGNGLFINESAKLVDTFLEDVKNLYHSEAFSINFRDAEEAKKKINDYVEKGSHGKIVELVKVLDPNTVFALVNYISFKGKWEKPFEMKHTTERDFHVDEQTTVKVPMMNRLGMFDLHYCDKLASWVLLLDYVGNVTACFILPDLGKLQQLEDKLNNELLAKFLEKKYASSANLHLPKLSISETYDLKSVLGDVGITEVFSDRADLSGITKEQPLKVSKALHKAALTIDEKGTEAVGSTFLEAIPMSLPPDVEFNRPFLCILYDRNTKSPLFVGKVVNPTQA

binding: binds
B3: α2-antiplasmin (protein, UniProt P28800 41-492)
chain: AQQKLPPLSLLKLDNQEPGGQIAPKKAPEDCKLSPTPEQTRRLARAMMTFTTDLFSLVAQSSTRPNLILSPLSVALALSHLALGAQNQTLQRLKEVLHADSGPCLPHLLSRLCQDLGPGAFRLAARMYLQKGFPIKEDFLEQSEQLFGAKPMSLTGMKGEDLANINRWVKEATEGKIEDFLSDLPDDTVLLLLNAIHFQGFWRSKFDPNLTQRGAFHLDEQFTVPVDMMQALTYPLHWFLLEQPEIQVAHFPFKNNMSFVVLMPTRFEWNASQVLANLTWDILHQPSLSERPTKVQLPKLHLKYQLDLVATLSQLGLQELFQAPDLRGISDERLVVSSVQHQSALELSEAGVQAAAATSTAMSRMSLSSFIVNRPFLFFILEDSTSLPLFVGSVRNPNPGAQPERKEQQDSPDGKDSFQDHKGLPRGDKPFDPDLKLGPPSEEDYAQPSSPK
